According to paper doi:10.1101/2020.09.09.290387:
These are yes or no findings as the source states them, for the method shown. Binding seen in cells or lysates may run through a third protein. These calls come from enrichment with a bait or labelling near it, and not all partners need be listed.

By UniProt entry, the sequences of proteins in these tests, tags left out.
UniProt Q06710: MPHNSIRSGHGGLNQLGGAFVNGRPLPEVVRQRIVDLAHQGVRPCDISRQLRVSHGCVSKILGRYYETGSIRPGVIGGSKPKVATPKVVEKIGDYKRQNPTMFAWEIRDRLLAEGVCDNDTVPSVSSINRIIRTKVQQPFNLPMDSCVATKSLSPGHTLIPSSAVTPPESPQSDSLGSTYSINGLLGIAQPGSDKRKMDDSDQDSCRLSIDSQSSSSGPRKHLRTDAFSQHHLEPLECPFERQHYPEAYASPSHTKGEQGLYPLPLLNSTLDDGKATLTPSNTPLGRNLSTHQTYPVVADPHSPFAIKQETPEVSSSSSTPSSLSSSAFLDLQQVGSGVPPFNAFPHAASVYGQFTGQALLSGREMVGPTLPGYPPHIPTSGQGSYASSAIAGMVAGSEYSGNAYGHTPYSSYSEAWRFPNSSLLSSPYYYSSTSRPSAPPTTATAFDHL
UniProt Q8WXI9: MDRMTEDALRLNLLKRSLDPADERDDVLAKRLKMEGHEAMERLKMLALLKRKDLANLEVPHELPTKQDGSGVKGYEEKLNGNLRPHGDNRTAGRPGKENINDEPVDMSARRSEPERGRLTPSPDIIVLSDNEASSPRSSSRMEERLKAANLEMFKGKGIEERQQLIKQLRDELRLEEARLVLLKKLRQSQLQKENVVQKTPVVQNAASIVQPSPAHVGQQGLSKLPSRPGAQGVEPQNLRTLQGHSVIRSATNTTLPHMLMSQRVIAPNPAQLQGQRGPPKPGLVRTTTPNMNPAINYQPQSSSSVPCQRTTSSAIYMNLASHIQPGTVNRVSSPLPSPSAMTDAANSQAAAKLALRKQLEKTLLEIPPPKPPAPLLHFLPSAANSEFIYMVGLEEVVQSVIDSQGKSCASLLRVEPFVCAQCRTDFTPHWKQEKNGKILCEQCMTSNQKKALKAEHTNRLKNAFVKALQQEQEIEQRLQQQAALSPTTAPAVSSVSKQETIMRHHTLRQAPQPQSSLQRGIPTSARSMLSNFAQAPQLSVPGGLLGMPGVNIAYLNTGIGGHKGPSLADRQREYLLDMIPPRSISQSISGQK
UniProt Q9H6I2: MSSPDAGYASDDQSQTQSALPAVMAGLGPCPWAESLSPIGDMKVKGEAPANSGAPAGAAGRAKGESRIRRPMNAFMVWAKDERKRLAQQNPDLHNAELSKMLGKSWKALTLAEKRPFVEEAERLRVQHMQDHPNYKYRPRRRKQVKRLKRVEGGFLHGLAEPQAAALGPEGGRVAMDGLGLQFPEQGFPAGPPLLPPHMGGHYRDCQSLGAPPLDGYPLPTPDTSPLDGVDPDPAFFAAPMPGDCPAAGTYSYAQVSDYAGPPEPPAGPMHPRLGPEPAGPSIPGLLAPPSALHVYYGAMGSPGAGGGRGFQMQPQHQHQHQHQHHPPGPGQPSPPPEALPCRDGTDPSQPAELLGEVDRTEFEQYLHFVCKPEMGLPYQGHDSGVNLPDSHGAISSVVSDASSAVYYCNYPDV
UniProt Q14839: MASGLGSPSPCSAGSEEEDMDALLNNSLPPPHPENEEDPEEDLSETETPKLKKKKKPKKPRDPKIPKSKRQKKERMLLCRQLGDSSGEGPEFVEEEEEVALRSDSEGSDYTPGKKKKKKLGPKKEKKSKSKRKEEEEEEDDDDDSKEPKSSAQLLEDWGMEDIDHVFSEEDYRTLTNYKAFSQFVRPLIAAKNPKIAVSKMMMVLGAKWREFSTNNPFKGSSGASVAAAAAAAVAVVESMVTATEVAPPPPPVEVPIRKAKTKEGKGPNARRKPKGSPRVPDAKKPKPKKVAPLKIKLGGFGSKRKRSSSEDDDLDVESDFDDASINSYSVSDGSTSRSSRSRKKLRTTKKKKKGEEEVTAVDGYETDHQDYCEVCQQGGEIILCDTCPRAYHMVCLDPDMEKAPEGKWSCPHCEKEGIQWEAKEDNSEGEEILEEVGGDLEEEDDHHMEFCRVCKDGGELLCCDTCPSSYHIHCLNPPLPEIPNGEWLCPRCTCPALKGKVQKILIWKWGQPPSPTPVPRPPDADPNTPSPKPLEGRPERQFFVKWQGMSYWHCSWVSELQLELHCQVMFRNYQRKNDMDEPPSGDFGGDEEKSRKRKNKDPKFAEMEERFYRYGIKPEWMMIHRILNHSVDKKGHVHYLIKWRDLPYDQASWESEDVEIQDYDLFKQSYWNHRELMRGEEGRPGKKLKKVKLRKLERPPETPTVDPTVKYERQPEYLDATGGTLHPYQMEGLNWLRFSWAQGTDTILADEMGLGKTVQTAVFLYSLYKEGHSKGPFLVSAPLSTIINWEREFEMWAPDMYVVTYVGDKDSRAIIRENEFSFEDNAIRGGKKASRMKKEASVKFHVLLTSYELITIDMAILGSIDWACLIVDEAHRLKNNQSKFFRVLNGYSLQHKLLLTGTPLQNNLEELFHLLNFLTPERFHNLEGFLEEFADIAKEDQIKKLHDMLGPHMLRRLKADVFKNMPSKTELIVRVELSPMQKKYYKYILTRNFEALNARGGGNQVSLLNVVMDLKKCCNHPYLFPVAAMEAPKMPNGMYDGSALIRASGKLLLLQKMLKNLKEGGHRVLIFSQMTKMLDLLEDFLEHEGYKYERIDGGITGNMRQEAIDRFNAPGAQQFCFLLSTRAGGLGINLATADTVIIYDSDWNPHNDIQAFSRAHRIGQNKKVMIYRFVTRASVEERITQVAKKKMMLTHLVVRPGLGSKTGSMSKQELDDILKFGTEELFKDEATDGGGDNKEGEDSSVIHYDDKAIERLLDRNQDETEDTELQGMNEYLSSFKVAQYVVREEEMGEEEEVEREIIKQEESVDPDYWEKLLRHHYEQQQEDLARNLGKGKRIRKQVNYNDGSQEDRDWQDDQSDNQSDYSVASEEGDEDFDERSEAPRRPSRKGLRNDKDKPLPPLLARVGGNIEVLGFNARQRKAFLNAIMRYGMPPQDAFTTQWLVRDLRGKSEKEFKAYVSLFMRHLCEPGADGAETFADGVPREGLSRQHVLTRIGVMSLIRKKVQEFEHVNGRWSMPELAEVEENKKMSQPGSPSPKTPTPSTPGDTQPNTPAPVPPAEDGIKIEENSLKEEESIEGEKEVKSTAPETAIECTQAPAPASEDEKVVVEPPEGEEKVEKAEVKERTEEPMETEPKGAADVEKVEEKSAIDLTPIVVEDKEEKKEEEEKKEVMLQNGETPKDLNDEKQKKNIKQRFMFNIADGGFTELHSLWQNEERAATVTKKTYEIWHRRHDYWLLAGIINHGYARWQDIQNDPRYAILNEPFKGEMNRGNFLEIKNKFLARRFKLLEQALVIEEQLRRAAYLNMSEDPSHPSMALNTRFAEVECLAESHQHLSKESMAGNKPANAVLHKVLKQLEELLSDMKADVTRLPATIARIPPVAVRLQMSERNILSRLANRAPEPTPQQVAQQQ
UniProt Q13547: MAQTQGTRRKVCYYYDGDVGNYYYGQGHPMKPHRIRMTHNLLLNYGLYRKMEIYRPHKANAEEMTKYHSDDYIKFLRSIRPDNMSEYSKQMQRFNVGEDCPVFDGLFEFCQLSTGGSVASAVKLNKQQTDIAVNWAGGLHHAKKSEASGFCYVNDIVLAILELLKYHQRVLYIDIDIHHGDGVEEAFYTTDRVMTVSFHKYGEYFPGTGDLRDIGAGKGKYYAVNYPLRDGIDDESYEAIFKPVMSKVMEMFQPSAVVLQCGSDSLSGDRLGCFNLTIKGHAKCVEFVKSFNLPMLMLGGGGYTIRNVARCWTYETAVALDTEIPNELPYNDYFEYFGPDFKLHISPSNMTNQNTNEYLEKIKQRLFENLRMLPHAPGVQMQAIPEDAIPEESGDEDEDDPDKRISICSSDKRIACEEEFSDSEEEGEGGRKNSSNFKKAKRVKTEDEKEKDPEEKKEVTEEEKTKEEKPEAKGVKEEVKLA

target: PAX8 (human (endogenous in FT194, FT246, FT282, OVCAR4, KURAMOCHI, OVSAHO and human tissues)) (UniProt Q06710); assay: affinity purification with mass spectrometry

binding	Substance
binds	GATAD2B (from UniProt Q8WXI9 1-593)
binds	SOX17 (from UniProt Q9H6I2 1-414)
binds	chromodomain-helicase-DNA-binding protein 4 (from UniProt Q14839 1-1912)
binds	histone deacetylases 1 (from UniProt Q13547 1-482)
